Source: PubChem BioAssay AID1508597 (Cure First, 2020)

Purpose: 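Knock-downs altering ovarian cancer cell survival with or without PARP inhibitor rucaparib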 (primary screen)
Cell system: human ovarian carcinoma lines grown from tumours: OCI-P5x (papillary serous) and OCI-C5x (clear cell)
Reagents: siRNA pool against human genes, 1.25 pmol siRNA per well
Time to read-out: 72 h or 96 h, depending on the cell culture
Challenge: rucaparib 20 µM (about IC30) or vehicle, present until read-out
Rucaparib or vehicle: Vehicle
Cell line: OCI-P5x (serous)
Measured: 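Luminescent ATP-based viability assay read 72 or 96 h after transfection, depending on culture, given as normalised percent viability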
Scale: viability, normalised: higher = more viable cells remaining
Call rule: 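Active when normalised viability falls below 80 percent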
Calls: active = viability under 80%; inactive = viability 80% or more
Shown is an unselected part of the about 2,100 reagents, in one setting of the screen. 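Calls flag viability under 80% in either arm, not effects specific to rucaparib; the reference for percent is not stated.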 Unmarked entries are inactive. Not stated in the record: the 100% reference.

| Gene | technical replicate | viability, normalised (%) |
| --- | --- | --- |
| ASNS (GeneID 440) | 1 | 68.3 (active) |
| ASNS (GeneID 440) | 2 | 74.3 (active) |
| ASNS (GeneID 440) | 3 | 57 (active) |
| SETDB1 (GeneID 9869) | 1 | 58.9 (active) |
| SETDB1 (GeneID 9869) | 2 | 67 (active) |
| SETDB1 (GeneID 9869) | 3 | 89.7 |
| MLLT6 (GeneID 4302) | 1 | 70.9 (active) |
| MLLT6 (GeneID 4302) | 2 | 74 (active) |
| MLLT6 (GeneID 4302) | 3 | 83.5 |
| EPHA1 (GeneID 2041) | 1 | 106 |
| EPHA1 (GeneID 2041) | 2 | 71.2 (active) |
| EPHA1 (GeneID 2041) | 3 | 108 |
| PKM (GeneID 5315) | 1 | 98.6 |
| PKM (GeneID 5315) | 2 | 91.5 |
| PKM (GeneID 5315) | 3 | 100 |
| FMR1 (GeneID 2332) | 1 | 50.1 (active) |
| FMR1 (GeneID 2332) | 2 | 74.3 (active) |
| FMR1 (GeneID 2332) | 3 | 67 (active) |
| TNNI3K (GeneID 51086) | 1 | 69 (active) |
| TNNI3K (GeneID 51086) | 2 | 75.6 (active) |
| TNNI3K (GeneID 51086) | 3 | 91.9 |
| STK38 (GeneID 11329) | 1 | 65.8 (active) |
| STK38 (GeneID 11329) | 2 | 70.1 (active) |
| STK38 (GeneID 11329) | 3 | 63.6 (active) |

Targets listed so far whose target name starts with A or a:
| Gene | technical replicate | viability, normalised (%) |
| --- | --- | --- |
| ASNS (GeneID 440) | 1 | 68.3 (active) |
| ASNS (GeneID 440) | 2 | 74.3 (active) |
| ASNS (GeneID 440) | 3 | 57 (active) |
